Binding data for one substance are collected here from article PMC10454406.

Protein sequences, listed by entry. Tags and fused reporters are not part of them.
UniProt P0DTC4: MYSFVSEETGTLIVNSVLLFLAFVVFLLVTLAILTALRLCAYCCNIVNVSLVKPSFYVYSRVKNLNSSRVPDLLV
UniProt O00560: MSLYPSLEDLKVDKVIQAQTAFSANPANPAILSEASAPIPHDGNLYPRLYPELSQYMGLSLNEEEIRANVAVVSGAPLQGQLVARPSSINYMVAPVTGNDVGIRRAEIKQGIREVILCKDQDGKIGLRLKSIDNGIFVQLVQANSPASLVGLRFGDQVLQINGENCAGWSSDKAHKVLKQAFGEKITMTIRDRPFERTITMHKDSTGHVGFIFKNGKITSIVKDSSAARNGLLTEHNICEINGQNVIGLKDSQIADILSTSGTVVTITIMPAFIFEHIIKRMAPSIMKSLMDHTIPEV

Like-named read-outs stand apart in the source and are kept apart here. Results are given in words; binding and its absence hold for the method and conditions named. Binding seen in cells or lysates may run through a third protein. Some results given as binding are weak or reduced against the parent protein; the word gives no strength.

In experiment [1] the target is GFP-SARS-CoV-2 E protein (wild-type E protein) (SARS-CoV-2) (UniProt P0DTC4). Put plainly: co-IP.
For experiment [2] the target is unchanged. The experiment can be described thus: co-IP. This is another data set of the same source.

Turning to HA-syntenin (from UniProt O00560 1-298), the binding result in experiment [1] and in experiment [2] was “binds” in each case.
